# The exact form of at least one protein or probe is not confirmed.
# Molecular target: His-Avrxa27CRR (AvrXa27 central repeat region) (UniProt A0A0K0GNW2)
# Experiment: EMSA
# Settings: recombinant protein; protein details: His; label: 5'-Cy5 on both strands
row,Sequence,binding result
1,TAGTTCTGAAAATAAGTC (double strand) [EBE1 probe],binds
2,TAATGCTAAAAAAACCTT (double strand) [EBE3 probe],binds
3,TAATTAAATTCAACCTAT (double strand) [EBE2 probe],binds
4,TCATTGACCTGATCCAAC (double strand) [EBE4 probe],binds

# Source: PMC12713027
